Measurements from PMC3364957.
Results are given in words; binding and its absence hold for the method and conditions named. Binding seen in cells or lysates may run through a third protein. These calls come from enrichment with a bait or labelling near it, and not all partners need be listed. A no says only that the protein was not detected with the bait.

Protein sequences, listed by entry. Tags and fused reporters are not part of them. Residues count along the entry.
UniProt P05690, residues 16-1613: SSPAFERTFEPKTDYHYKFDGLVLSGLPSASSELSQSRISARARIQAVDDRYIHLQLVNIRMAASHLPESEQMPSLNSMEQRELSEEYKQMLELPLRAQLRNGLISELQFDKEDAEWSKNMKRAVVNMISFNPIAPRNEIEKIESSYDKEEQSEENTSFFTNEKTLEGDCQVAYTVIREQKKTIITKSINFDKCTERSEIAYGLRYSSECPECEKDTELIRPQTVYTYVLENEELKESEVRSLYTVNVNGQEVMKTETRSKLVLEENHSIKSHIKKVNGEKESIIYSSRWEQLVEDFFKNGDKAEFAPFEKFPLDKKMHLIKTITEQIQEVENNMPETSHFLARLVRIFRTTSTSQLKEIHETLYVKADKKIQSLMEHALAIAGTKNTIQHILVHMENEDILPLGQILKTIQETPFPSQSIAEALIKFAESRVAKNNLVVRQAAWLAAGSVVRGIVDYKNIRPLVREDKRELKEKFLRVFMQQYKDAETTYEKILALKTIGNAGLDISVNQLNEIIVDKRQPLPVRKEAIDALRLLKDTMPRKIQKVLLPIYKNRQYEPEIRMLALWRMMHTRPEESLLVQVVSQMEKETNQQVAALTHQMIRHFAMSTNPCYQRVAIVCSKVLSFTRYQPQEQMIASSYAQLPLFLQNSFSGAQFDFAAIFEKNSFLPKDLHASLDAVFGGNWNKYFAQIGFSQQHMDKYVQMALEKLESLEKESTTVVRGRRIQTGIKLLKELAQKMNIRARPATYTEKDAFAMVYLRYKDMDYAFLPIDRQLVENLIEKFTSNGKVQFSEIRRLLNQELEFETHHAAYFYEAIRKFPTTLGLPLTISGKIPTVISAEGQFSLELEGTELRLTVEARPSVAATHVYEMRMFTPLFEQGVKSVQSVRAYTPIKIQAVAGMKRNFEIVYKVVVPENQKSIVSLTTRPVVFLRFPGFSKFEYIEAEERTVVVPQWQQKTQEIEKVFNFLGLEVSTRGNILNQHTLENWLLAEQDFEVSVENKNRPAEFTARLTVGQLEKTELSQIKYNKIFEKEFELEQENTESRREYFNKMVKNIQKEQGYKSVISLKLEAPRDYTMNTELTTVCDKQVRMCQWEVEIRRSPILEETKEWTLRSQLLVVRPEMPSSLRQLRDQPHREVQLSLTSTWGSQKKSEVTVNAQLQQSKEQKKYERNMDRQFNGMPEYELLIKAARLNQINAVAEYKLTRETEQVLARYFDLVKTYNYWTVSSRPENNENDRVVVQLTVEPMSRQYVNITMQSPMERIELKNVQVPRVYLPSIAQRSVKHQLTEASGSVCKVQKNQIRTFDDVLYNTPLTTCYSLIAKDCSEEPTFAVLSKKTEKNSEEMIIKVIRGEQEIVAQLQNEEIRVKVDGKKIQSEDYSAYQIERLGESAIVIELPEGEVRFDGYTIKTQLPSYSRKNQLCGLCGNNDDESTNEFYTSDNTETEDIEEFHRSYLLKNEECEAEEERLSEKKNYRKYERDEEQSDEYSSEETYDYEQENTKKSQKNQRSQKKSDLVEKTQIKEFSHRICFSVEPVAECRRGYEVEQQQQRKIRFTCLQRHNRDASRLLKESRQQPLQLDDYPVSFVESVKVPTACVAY
UniProt P18948, residues 16-1651: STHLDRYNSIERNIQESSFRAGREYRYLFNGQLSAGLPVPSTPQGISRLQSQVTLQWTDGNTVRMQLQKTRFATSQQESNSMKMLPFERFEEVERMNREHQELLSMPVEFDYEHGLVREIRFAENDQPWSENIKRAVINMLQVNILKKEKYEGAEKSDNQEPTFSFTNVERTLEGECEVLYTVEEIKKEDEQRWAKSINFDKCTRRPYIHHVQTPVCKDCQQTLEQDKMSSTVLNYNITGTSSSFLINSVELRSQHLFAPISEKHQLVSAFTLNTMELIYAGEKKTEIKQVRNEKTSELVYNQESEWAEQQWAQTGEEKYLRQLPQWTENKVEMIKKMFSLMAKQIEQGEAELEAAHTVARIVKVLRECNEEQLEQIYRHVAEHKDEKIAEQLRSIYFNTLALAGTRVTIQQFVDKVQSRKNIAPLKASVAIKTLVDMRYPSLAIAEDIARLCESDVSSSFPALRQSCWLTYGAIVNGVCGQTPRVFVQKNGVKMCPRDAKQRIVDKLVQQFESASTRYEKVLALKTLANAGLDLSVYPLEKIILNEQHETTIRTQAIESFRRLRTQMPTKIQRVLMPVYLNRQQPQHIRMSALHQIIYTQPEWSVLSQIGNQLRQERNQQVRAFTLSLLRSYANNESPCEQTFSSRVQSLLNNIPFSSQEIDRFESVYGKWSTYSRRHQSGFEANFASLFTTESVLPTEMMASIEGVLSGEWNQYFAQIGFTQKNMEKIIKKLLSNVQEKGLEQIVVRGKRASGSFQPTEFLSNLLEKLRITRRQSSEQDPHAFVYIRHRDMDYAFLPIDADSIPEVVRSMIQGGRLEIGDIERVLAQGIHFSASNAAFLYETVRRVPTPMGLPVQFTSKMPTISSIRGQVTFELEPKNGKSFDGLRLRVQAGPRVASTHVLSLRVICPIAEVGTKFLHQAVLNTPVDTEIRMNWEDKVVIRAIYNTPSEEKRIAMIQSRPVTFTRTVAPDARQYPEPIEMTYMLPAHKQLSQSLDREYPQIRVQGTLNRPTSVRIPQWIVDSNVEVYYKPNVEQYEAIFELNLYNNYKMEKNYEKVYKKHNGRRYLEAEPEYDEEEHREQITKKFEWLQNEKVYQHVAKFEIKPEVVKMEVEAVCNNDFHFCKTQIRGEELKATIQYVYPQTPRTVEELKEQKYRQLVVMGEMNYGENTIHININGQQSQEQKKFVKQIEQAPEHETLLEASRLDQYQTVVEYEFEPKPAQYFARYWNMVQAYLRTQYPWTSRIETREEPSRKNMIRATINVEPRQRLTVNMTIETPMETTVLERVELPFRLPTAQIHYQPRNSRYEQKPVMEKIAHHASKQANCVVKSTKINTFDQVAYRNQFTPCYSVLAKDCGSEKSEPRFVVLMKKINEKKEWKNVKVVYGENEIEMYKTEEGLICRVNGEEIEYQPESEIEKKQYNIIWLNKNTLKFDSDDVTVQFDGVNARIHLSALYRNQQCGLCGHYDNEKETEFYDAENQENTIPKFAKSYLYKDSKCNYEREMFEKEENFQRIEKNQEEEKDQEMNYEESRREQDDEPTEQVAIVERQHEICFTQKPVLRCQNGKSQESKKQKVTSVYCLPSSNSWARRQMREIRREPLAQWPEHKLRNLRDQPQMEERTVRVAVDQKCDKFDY

T1: GLD-1 (C. elegans (endogenous in worm lysate)) (UniProt Q17339)
T1 sequence: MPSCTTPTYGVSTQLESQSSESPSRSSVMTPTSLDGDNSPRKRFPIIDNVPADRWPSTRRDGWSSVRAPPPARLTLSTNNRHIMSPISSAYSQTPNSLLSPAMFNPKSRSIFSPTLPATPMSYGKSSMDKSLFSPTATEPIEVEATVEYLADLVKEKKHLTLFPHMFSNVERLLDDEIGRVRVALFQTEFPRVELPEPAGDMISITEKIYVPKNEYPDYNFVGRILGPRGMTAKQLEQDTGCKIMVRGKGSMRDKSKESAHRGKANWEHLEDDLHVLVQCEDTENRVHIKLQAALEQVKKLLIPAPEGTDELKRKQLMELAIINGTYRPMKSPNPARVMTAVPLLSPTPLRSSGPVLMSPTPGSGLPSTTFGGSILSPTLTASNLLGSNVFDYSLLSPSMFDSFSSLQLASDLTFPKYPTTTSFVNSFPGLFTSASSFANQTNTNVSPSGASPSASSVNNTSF

B1: CAR-1 (protein, UniProt Q9XW17 1-340)
chain: MSNQTPYIGSKISLISKLDIRYEGILYTVDTNDSTIALAKVRSFGTEKRPTANPVAARDDVYEYIIFKASDIKDLIVCDTPKMANIGGGLPYDPAIISVSSRSAPASDGAPAASAGSSRAGTPSRNSPLGQIIQNQRPGRGGYQQNFQANRGYNNYRGGFAGGYNNQRGHNNYGVPRVNHREKLKFESDFDFEKANEKFQEVLVDNLEKLNIEDKAEPEVEEKKDAAFYDKKTSFFDNISCESLEKAEGKTGRPDWKKERETNQETFGHNAVRSLNYRRGFGGRGRGGNRGYGGYNNGYQHQHQHRGGYNGGYRQNNGGYRRGGYAPRDNQGNTAAAAEQ
B2: PAB-1 (protein, UniProt Q9U302 1-646)
chain: MEMNVAAPAAAVAGAAAPQPGQNQTGSSYTMASLYVGDLHPDVNESILFEKFSAAGPVLSIRVCRDNATRLSLGYAYVNFQQPADAERAMDTMNFEALHGKPMRIMWSQRDPAMRRSGAGNIFIKNLDKVIDNKSIYDTFSLFGNILSCKVAIDEDGFSKGYGFVHFETEEAAQNAIQKVNGMLLAGKKVFVGKFQPRAQRNRELGETAKQFTNVYVKNFGDHYNKETLEKLFAKFGNITSCEVMTVEGKSKGFGFVAFANPEEAETAVQALHDSTIEGTDLKLHVCRAQKKSERHAELKKKHEQHKAERMQKYQGVNLYVKNLDETVDDDGLKKQFESYGNITSAKVMTDENGRSKGFGFVCFEKPEEATSAVTEMNSKMVCSKPLYVAIAQRKEDRRAQLASQYMQRLASMRMHGNVPGAAMYNPTQPGPGYYVANPMQQQRNFAGGQQMVRPGGRWGMQNQYPVQNQYMMAQGPGVYQNRMGRPQNQQGGPRGPPQQYNQVAQGGVRMQGPPRTQNPGVQQQNVPRPPQQQQQQRPAPTGPKAPPQPYQAYQQRPQGIVIGGQEPLTSAMLAAAAPQEQKQLLGERIYALIEKLYPGHKDAGKITGMMLEIDNSELIMMLQDSELFRSKVDEAASVLVSAQKQ

What follows are molecules tested against T1, GLD-1 (C. elegans (endogenous in worm lysate)) (assay: affinity purification with mass spectrometry; anti-GLD-1 (mouse monoclonal) IPs from worm lysate compared with anti-FLAG IPs; SDS-PAGE, in-gel trypsin digest, nanoLC with LTQ Orbitrap Velos).

Row | Molecule | binding
1 | CEY-1 (C. elegans (endogenous in worm lysate)) | binds
2 | CEY-2 (C. elegans (endogenous in worm lysate)) | binds
3 | CEY-3 (C. elegans (endogenous in worm lysate)) | binds
4 | CEY-4 (C. elegans (endogenous in worm lysate)) | binds
5 | HSP-60 (C. elegans (endogenous in worm lysate)) | no binding
6 | VIT-2 (from UniProt P05690 16-1613) | no binding
7 | VIT-6 (from UniProt P18948 16-1651) | no binding
8 | B1 | binds
9 | B2 | binds
